Measurements taken from PubChem BioAssay AID493014 (National Center for Advancing Translational Sciences (NCATS), 2011).
In all, about 340,000 compounds went through this assay and about 170 (0.05%) were called active. Inconclusive means that the source gave no clear call. Such entries were picked first, then a sample of the others. Calls follow the shape of the dose curve; as a rule, active = well fitted inhibition curve with a large enough effect in the signal ratio, with a control signal flat (not every such curve was filed as active); inconclusive = small, poorly fitted or top-dose-only effect, or effect the other way, or a change in a side signal; inactive = flat fitted curve, though single readings scatter; the % refers to the signal ratio. Potencies beside an inconclusive call are fits to weak or partial responses and may not hold up.

test: qHTS Assay to Find Inhibitors of Chronic Active B-Cell Receptor Signaling; conditions: ABC-DLBCL IkBa-CBG/CBR reporter, luminescence ratio (green luciferase fused to IkBa over red control in TMD8 lymphoma cells), 4 h; activity change, negative = inhibition: at 46.1 µM (top of the series);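 as to activity change, negative = inhibition: plate controls were basal doxycycline-induced cells for no effect and cells given 10 µM MG132 for full effect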
In short: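 TMD8 ABC-DLBCL cells carrying doxycycline-inducible green luciferase fused to IkappaBalpha plus unfused red luciferase were exposed to compounds (up to 46 uM) for 4 hrs at 37C. Activity came from the overlap-corrected green/red luminescence ratio.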
Potency is read from the fitted curve at half-maximal effect.

SMILES	activity change, negative = inhibition	Potency
COC(=O)c1ccccc1NC(=O)N1CCc2ccc(NC(=O)c3ccccn3)cc2C1	inactive	
CC1CCN(C(=O)CSc2nc3ccccc3s2)CC1	inconclusive: 6.54%	
COc1ccc(CN2C=C3C(=O)C(C)(OC(=O)CCc4ccccc4)C(=O)C=C3C=C2c2ccc(C#N)cc2)cc1 (centres undefined)	inconclusive: 10.4%	
Fc1ccc(C(CCNCc2cccs2)c2ccco2)cc1 (centres undefined)	inactive	
CC(=O)c1ccc(N2CCN(C(=S)Nc3cccc(Cl)c3)CC2)cc1	inconclusive: 4.06%	
CC(=O)c1ccc(NS(=O)(=O)c2ccc(CC(C)C)cc2)cc1	inactive	
COc1ccc(-c2nc3ccccc3s2)cc1	inactive	
COCCN(C(=O)COC(=O)CSc1ccc2ccccc2c1)c1c(N)n(Cc2ccccc2)c(=O)[nH]c1=O		inconclusive: 29.1 µM [falling, single point]
O=[N+]([O-])c1ccn(-c2nc(-c3ccccc3)cc(C(F)(F)F)n2)n1	inconclusive: 7.22%	
N#CCSCC(=O)Nc1ccc(Br)cc1	inconclusive: 6.6%	
COc1ccc(C)cc1NC(=O)CNC(c1ccccc1)c1ccc(C)cc1 (centres undefined)		inconclusive: 15.8 µM [falling, single point]
Oc1ccccc1-c1nnc(COc2ccccc2)o1	inconclusive: -15.7%	
O=C(Nc1cccc(NC(=O)c2cccs2)c1)c1ccc2c(c1)OCCO2		inconclusive: 35.5 µM [falling, partial curve, poor fit]
O=C1/C(=C\c2cccs2)N=C(c2cccs2)N1Nc1ccccc1	inconclusive: 12.2%	
O=C(CN1CCN(c2ccc(F)cc2)CC1)Nc1ccccc1Br	inconclusive: -187%	
O=C(N/N=C/c1ccc(OC(=O)c2ccccc2Cl)cc1)c1cc(O)cc(O)c1		inconclusive: 20 µM [falling, single point]
Cc1nc2ccccc2nc1Nc1cccc(Cl)c1	inconclusive: 7.06%	
N#C/C(=C\C1=C(N2CCOCC2)C(=C/c2cccc([N+](=O)[O-])c2)/CC1)C(=O)Nc1ccccc1F	inconclusive: -0.0464%	
CCn1c(=O)c2sccc2n(CC(=O)NCCC2=CCCCC2)c1=O	inactive	
CCCOc1ccc2nc(NC(=O)OC)[nH]c2c1	inconclusive: -18.4%	
Cc1ccc(NC(=O)CN2CCOCC2)cc1	inconclusive: -1.41%	
C/C(=N\NC(=O)Cc1ccccc1)c1cccs1	inconclusive: 2.52%	
O=C1CCN(N=Nc2cccc(Cl)c2)N1		inconclusive: 18.4 µM [falling, partial curve, poor fit]
Cn1c(=S)[nH]c2ccccc21	inactive	
Cc1csc(SCC(=O)NC2CCS(=O)(=O)C2)n1 (centres undefined)	inactive	
O=C(O)c1cc(N/N=C/c2c[nH]c3ccccc23)ccc1Cl		inconclusive: 31.6 µM [rising, single point]
Cc1[nH]n(-c2ccccc2)c(=O)c1/C=N/NC(=O)c1ccccc1F		inconclusive: 1.58 µM [falling, partial curve, poor fit]

A stretch of the results above, as a working copy:
SMILES	activity change, negative = inhibition	Potency
CC1CCN(C(=O)CSc2nc3ccccc3s2)CC1	inconclusive: 6.54%	
COc1ccc(CN2C=C3C(=O)C(C)(OC(=O)CCc4ccccc4)C(=O)C=C3C=C2c2ccc(C#N)cc2)cc1 (centres undefined)	inconclusive: 10.4%	
Fc1ccc(C(CCNCc2cccs2)c2ccco2)cc1 (centres undefined)	inactive	

(next part)

SMILES	activity change, negative = inhibition	Potency
CC(=O)Nc1cccc(C(=O)/C=C/c2cccs2)c1		inconclusive: 23.1 µM [falling, single point]
Fc1ccccc1C1CC(c2ccco2)=Nc2ccccc2S1 (centres undefined)	inconclusive: -29%	
CCc1ccc(NC(=S)N(Cc2ccc(Cl)cc2)Cc2ccc(C(=O)O)cc2)cc1	inconclusive: -0.118%	
CC1CCc2nc(/C(C#N)=C/c3cccnc3)sc2C1 (centres undefined)	inconclusive: -3.7%	
CCOc1ccc(NC(=S)N(CC)Cc2ccccc2)cc1		inconclusive: 6.31 µM [falling, single point]
COc1ccccc1/C=C/CN1CCN(Cc2ccc(C)o2)C(CCO)C1 (centres undefined)	inactive	
COc1ccc(Cn2c(=O)cc(N)n(-c3ccccc3C)c2=O)cc1	inconclusive: -18.2%	
COc1ccc(/C=C(/NC(=O)c2ccc(OC)cc2)C(=O)NCCc2c[nH]c3ccccc23)cc1	inconclusive: 2.4%	
CCNC(=S)Nc1ccc(Cc2ccncc2)cc1	inconclusive: 13%	
Cc1ccc(NC(=O)CCCn2c(=S)[nH]c3ccsc3c2=O)cc1C	inactive	
Cc1ccccc1NC(=O)C(Cc1ccccc1)n1cccc1 (centres undefined)	inconclusive: 2.92%	
Clc1ccc(-c2nc(N3CCOCC3)nc3ccccc23)cc1	inactive	
Cc1cc(C)c(S(=O)(=O)N2CCCCC2CCNC(=O)C(=O)NCCN2CCOCC2)c(C)c1 (centres undefined)	inconclusive: 1.85%	
COc1ccc(C(c2sc3ncnn3c2O)N2CC(C)OC(C)C2)cc1OC (centres undefined)		inconclusive: 10.3 µM [falling, partial curve]
Cc1onc(-c2ccccc2Cl)c1C(=O)Oc1cc(N)n(S(=O)(=O)c2ccc(F)cc2)n1		inconclusive: 25.1 µM [falling, single point]
COc1ccc(NC(=O)c2c(NCc3cccs3)sc3c2CCCCC3)c(OC)c1	inactive	
COc1cccc(NS(=O)(=O)c2c(C(=O)N3CCCCCC3)c(C)n(C)c2C)c1	inactive	
COc1ccc2nc(CC(C)(C)CC(=O)O)c[n+]([O-])c2c1	inactive	
CN1CCN(C(=S)NCCc2ccccc2)CC1	inconclusive: 0.848%	
O=S(=O)(NCC(c1ccco1)N1CCc2ccccc2C1)c1ccc(Br)cc1 (centres undefined)	inactive	
Cc1ccccc1Nc1nc(N)nc(COC(=O)[C@@H](NC(=O)c2ccccc2Cl)C(C)C)n1	inconclusive: -2.54%	
Cc1ccc(Nc2nc(N/N=C\c3ccc4c(c3)OCO4)nc(N3CCOCC3)n2)cc1		inconclusive: 22.4 µM [falling, single point]
Cc1cc(/C=N/NC(=O)c2cccnc2)c(C)n1CC(C)C		inconclusive: 35.5 µM [falling, partial curve, poor fit]
Cc1c(-c2cccs2)[n+](=O)c2c(n1[O-])CCCC2	inconclusive: -5.68%	
Cc1ccc(NCc2nnc(SCC(=O)Nc3ncc(C)s3)n2CC2CCCO2)c(C)c1 (centres undefined)	inconclusive: 0.91%	
Nc1cccc(CN2CCCC2)c1	inconclusive: -5.14%	
Cc1cc(C)c(C)c(S(=O)(=O)N2CCN(C(=O)c3cc(=O)[nH]c4ccccc34)CC2)c1C	inconclusive: -11.5%	
